Measurements: PubChem BioAssay AID248 (DTP/NCI, 2004)
The list shows only some results of the screen, not a fair sample: it is rich in T/C values a quarter to a half above the control, in often repeated tests (any T/C) and in doses without a T/C. Further doses and runs are listed elsewhere. T/C gives the treated animals as a percentage of the vehicle group. Some doses have a count of surviving animals in place of a T/C: the source holds a T/C of zero for them, seemingly a mark for toxic or unscored doses. Some survivor counts are full or nearly so, which does not show that the dose was tolerated: the source hardly ever lists a survival T/C far under the control, and the zero likely stands for such cases as well. Survivors were counted at the toxicity check, usually on the fifth day, unless a day is given; later deaths do not show. Schedule codes are those of the source, taken here to give the interval after Q, in days (D) or hours (H), and the number of doses after X. Some entries hold several experiments; their values stand side by side, smallest first. Some schedule codes hold Z or #, which are not explained here. Where survival is the endpoint, the PubChem record calls one and a half times the control and up active, and a quarter to a half above the control has no call in these data; cut-offs in other NCI protocols can differ. Some T/C values carry the count of animals alive at the toxicity check (mostly the fifth day); without a count, all were alive then.

Test system: L1210 leukemia ip in BDF1 mice, survival T/C
Assay: NCI In Vivo Anticancer Drug Screen. Data for tumor model L1210 Leukemia (intraperitoneal) in B6D2F1 (BDF1) mice
Settings: higher T/C = longer survival

In the case of `O=NN(CCCl)C(=O)NCCCl`, the survivor count (T/C endpoint: mean survival time, dose: 96.0 mg/kg/injection, schedule: Q01DX009 (sc), vehicle: saline) was 0 of 10, the survivor count (T/C endpoint: mean survival time, dose: 96.0 mg/kg/injection, schedule: Q## X003 (ip), vehicle: saline) was 8 of 10 and the survivor count (T/C endpoint: mean survival time, dose: 96.0 mg/kg/injection, schedule: Q## X003 (oral), vehicle: saline) was 8 of 10. For the same compound, the survivor count (T/C endpoint: mean survival time, dose: 96.0 mg/kg/injection, schedule: Q## X008 (ip), vehicle: saline) was 10 of 10, the survivor count (T/C endpoint: mean survival time, dose: 96.0 mg/kg/injection, schedule: Q## X024 (ip), vehicle: saline) was 10 of 10 and the survivor count (T/C endpoint: mean survival time, dose: 96.0 mg/kg/injection, schedule: Q## X024 (oral), vehicle: saline) was 9 of 10. For the same compound, the survivor count (T/C endpoint: mean survival time, dose: 100.0 mg/kg/injection, schedule: Q01DX Z (ip), vehicle: carboxymethylcellulose (CMC)) was 0 of 6, the survivor count (T/C endpoint: mean survival time, dose: 128.0 mg/kg/injection, schedule: Q01DX Z (iv), vehicle: saline) was 6 of 6 and the survivor count (T/C endpoint: mean survival time, dose: 128.0 mg/kg/injection, schedule: Q01DX Z (oral), vehicle: saline) was 5 of 6. The survivor count (T/C endpoint: mean survival time, dose: 128.0 mg/kg/injection, schedule: Q#A X Z (oral), vehicle: saline) was 0 of 6, the survivor count (T/C endpoint: mean survival time, dose: 192.0 mg/kg/injection, schedule: Q01DX001 (ip), vehicle: saline) was 0 of 10 and 3 of 10 and the survivor count (T/C endpoint: mean survival time, dose: 192.0 mg/kg/injection, schedule: Q01DX001 (oral), vehicle: saline) was 0 of 10. For the same compound, the survivor count (T/C endpoint: mean survival time, dose: 192.0 mg/kg/injection, schedule: Q01DX005 (ip), vehicle: saline) was 0 of 10, the survivor count (T/C endpoint: mean survival time, dose: 192.0 mg/kg/injection, schedule: Q01DX005 (oral), vehicle: saline) was 0 of 10 and the survivor count (T/C endpoint: mean survival time, dose: 192.0 mg/kg/injection, schedule: Q01DX009 (ip), vehicle: saline) was 0 of 10. The survivor count (T/C endpoint: mean survival time, dose: 192.0 mg/kg/injection, schedule: Q01DX009 (oral), vehicle: saline) was 0 of 10, the survivor count (T/C endpoint: mean survival time, dose: 192.0 mg/kg/injection, schedule: Q01DX009 (sc), vehicle: saline) was 0 of 10 and the survivor count (T/C endpoint: mean survival time, dose: 192.0 mg/kg/injection, schedule: Q03DX Z (oral), vehicle: saline) was 6 of 6. The survivor count (T/C endpoint: mean survival time, dose: 192.0 mg/kg/injection, schedule: Q## X003 (ip), vehicle: saline) was 0 of 10, the survivor count (T/C endpoint: mean survival time, dose: 192.0 mg/kg/injection, schedule: Q## X003 (oral), vehicle: saline) was 3 of 10 and the survivor count (T/C endpoint: mean survival time, dose: 192.0 mg/kg/injection, schedule: Q## X008 (ip), vehicle: saline) was 0 of 10. For the same compound, the survivor count (T/C endpoint: mean survival time, dose: 192.0 mg/kg/injection, schedule: Q## X008 (oral), vehicle: saline) was 0 of 10, the survivor count (T/C endpoint: mean survival time, dose: 192.0 mg/kg/injection, schedule: Q## X024 (ip), vehicle: saline) was 0 of 10 and the survivor count (T/C endpoint: mean survival time, dose: 192.0 mg/kg/injection, schedule: Q## X024 (oral), vehicle: saline) was 1 of 10. For the same compound, the survivor count (T/C endpoint: mean survival time, dose: 256.0 mg/kg/injection, schedule: Q01DX Z (oral), vehicle: saline) was 4 of 6, the survivor count (T/C endpoint: mean survival time, dose: 384.0 mg/kg/injection, schedule: Q01DX001 (ip), vehicle: saline) was 0 of 10 and the survivor count (T/C endpoint: mean survival time, dose: 384.0 mg/kg/injection, schedule: Q01DX001 (oral), vehicle: saline) was 0 of 10. The survivor count (T/C endpoint: mean survival time, dose: 384.0 mg/kg/injection, schedule: Q01DX009 (sc), vehicle: saline) was 0 of 10, the survivor count (T/C endpoint: mean survival time, dose: 384.0 mg/kg/injection, schedule: Q03DX Z (oral), vehicle: saline) was 6 of 6 and the survivor count (T/C endpoint: mean survival time, dose: 384.0 mg/kg/injection, schedule: Q## X003 (ip), vehicle: saline) was 0 of 10. For the same compound, the survivor count (T/C endpoint: mean survival time, dose: 384.0 mg/kg/injection, schedule: Q## X003 (oral), vehicle: saline) was 1 of 10, the survivor count (T/C endpoint: mean survival time, dose: 384.0 mg/kg/injection, schedule: Q## X008 (ip), vehicle: saline) was 0 of 10 and the survivor count (T/C endpoint: mean survival time, dose: 384.0 mg/kg/injection, schedule: Q## X008 (oral), vehicle: saline) was 0 of 10. The survivor count (T/C endpoint: mean survival time, dose: 384.0 mg/kg/injection, schedule: Q## X024 (ip), vehicle: saline) was 0 of 10, the survivor count (T/C endpoint: mean survival time, dose: 384.0 mg/kg/injection, schedule: Q## X024 (oral), vehicle: saline) was 0 of 10 and the survivor count (T/C endpoint: mean survival time, dose: 768.0 mg/kg/injection, schedule: Q03DX Z (oral), vehicle: saline) was 3 of 6. For the same compound, the T/C (T/C endpoint: median survival time, dose: 1.5 mg/kg/injection, schedule: Q01DX009 (ip), vehicle: saline) was 130 % of control, the T/C (T/C endpoint: median survival time, dose: 8.0 mg/kg/injection, schedule: Q01DX001 (ip), vehicle: Klucel (hydroxypropylcellulose) (HPC)) was 126 and 144 % of control and the T/C (T/C endpoint: median survival time, dose: 10.0 mg/kg/injection, schedule: Q01DX001 (ip), vehicle: saline, evaluated on day 7) was 145 % of control. For the same compound, the T/C (T/C endpoint: median survival time, dose: 10.0 mg/kg/injection, schedule: Q01DX001 (ip), vehicle: saline, evaluated on day 35) was 140 % of control, the T/C (T/C endpoint: median survival time, dose: 10.0 mg/kg/injection, schedule: Q01DX001 (ip), vehicle: saline, evaluated on day 60) was 144 % of control and the T/C (T/C endpoint: median survival time, dose: 12.0 mg/kg/injection, schedule: Q01DX009 (ip), vehicle: saline, evaluated on day 30) was 147 % of control [7 of 8 alive]. The T/C (T/C endpoint: median survival time, dose: 12.0 mg/kg/injection, schedule: Q01DX009 (ip), vehicle: saline, evaluated on day 32) was 135 % of control, the T/C (T/C endpoint: median survival time, dose: 15.0 mg/kg/injection, schedule: Q01DX001 (ip), vehicle: saline) was 144 % of control and the T/C (T/C endpoint: median survival time, dose: 15.0 mg/kg/injection, schedule: Q01DX009 (ip), vehicle: saline + alcohol) was 126 and 135 % of control. For the same compound, the survivor count (T/C endpoint: median survival time, dose: 48.0 mg/kg/injection, schedule: Q01DX009 (ip), vehicle: saline) was 6 of 8 and 7 of 8, the T/C (T/C endpoint: median survival time, dose: 64.0 mg/kg/injection, schedule: Q01DX001 (ip), vehicle: Klucel (hydroxypropylcellulose) (HPC)) was 134 % of control and the survivor count (T/C endpoint: median survival time, dose: 80.0 mg/kg/injection, schedule: Q01DX001 (ip), vehicle: saline + alcohol) was 3 of 6 and 5 of 6. For the same compound, the survivor count (T/C endpoint: median survival time, dose: 80.0 mg/kg/injection, schedule: Q01DX001 (ip), vehicle: saline) was 8 of 8.
